One assay addresses V5-tagged wild-type NM1 (UniProt Q9WTI7). Briefly: co-IP; total lysates of HEK293T cells stably expressing V5-tagged NM1 constructs; anti-V5 antibody and Protein G Sepharose; beads washed with 1X PBS, 1 mM PMSF, 0.2% NP-40; endogenous GSK3β detected on immunoblots with CGR11.
Assay [1] has as its target glycogen synthase kinase (GSK) 3β, endogenous, mouse (mouse (endogenous in MEFs)) (UniProt Q9WV60). Briefly: co-IP; nuclear lysates of growing GSK3β+/+ MEFs; endogenous GSK3β precipitated with the CGR11 antibody and Protein G Sepharose; beads washed with 1X PBS, 1 mM PMSF, 0.2% NP-40; immunoblots; non-specific rabbit IgGs as control. In general terms: A western blot detects proteins with antibodies after separation by electrophoresis.

Sequences of proteins named here, by UniProt entry; tags and fusion partners are left off. A change or cut given only in a name is not applied to a line headed by its entry. A line that says so, or that is headed by a name, gives the form on record, which may keep a tag or linker.
nuclear myosin 1c (NM1), endogenous, mouse (Q9WTI7-3, form named): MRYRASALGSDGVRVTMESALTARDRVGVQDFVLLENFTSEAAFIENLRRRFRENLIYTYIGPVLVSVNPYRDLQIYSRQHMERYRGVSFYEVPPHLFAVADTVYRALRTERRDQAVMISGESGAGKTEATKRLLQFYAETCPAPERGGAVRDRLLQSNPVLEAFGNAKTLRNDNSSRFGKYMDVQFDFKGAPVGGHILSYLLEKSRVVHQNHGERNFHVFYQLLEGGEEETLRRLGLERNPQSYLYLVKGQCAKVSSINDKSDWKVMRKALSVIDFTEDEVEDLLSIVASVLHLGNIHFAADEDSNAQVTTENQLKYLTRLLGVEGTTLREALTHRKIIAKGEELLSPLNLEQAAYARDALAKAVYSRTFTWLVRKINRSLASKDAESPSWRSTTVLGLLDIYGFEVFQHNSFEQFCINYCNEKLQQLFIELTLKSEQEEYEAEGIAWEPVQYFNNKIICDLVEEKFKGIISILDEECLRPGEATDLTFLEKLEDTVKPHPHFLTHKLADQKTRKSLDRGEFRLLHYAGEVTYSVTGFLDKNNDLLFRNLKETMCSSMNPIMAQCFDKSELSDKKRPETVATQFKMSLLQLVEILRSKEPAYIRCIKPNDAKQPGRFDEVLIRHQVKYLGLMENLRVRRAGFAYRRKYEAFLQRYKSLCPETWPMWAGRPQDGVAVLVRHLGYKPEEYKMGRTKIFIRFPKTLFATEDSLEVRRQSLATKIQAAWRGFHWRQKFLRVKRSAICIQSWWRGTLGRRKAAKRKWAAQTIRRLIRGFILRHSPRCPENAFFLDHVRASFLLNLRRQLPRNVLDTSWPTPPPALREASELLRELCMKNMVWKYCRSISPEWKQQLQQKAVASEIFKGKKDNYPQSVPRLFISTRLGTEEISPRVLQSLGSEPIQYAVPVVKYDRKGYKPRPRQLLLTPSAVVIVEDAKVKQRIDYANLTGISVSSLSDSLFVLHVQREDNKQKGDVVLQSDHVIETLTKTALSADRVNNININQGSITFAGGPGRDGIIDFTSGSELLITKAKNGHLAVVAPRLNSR
UniProt Q9WV60: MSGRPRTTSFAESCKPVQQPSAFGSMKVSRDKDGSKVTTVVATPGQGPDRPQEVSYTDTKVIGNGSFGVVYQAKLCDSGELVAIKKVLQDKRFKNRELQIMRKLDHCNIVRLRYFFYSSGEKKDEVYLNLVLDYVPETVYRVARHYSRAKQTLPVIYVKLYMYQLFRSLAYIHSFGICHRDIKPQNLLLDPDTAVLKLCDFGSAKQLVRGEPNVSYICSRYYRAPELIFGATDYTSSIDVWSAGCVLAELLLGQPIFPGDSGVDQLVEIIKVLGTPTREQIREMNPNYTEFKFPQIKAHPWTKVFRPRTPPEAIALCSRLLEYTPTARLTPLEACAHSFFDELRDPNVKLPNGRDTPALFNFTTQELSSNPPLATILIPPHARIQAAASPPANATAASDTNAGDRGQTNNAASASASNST
UniProt P49841: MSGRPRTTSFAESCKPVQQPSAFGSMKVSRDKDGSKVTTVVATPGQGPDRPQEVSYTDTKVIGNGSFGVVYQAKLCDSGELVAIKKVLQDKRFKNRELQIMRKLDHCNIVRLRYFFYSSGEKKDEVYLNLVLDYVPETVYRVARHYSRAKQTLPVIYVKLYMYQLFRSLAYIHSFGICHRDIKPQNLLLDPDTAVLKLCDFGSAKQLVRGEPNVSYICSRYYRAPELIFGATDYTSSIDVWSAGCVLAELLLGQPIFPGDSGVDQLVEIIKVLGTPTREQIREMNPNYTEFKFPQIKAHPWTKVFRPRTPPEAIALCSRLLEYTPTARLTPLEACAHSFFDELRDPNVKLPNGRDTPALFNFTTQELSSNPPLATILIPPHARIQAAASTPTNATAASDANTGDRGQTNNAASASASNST
UniProt Q91ZW3: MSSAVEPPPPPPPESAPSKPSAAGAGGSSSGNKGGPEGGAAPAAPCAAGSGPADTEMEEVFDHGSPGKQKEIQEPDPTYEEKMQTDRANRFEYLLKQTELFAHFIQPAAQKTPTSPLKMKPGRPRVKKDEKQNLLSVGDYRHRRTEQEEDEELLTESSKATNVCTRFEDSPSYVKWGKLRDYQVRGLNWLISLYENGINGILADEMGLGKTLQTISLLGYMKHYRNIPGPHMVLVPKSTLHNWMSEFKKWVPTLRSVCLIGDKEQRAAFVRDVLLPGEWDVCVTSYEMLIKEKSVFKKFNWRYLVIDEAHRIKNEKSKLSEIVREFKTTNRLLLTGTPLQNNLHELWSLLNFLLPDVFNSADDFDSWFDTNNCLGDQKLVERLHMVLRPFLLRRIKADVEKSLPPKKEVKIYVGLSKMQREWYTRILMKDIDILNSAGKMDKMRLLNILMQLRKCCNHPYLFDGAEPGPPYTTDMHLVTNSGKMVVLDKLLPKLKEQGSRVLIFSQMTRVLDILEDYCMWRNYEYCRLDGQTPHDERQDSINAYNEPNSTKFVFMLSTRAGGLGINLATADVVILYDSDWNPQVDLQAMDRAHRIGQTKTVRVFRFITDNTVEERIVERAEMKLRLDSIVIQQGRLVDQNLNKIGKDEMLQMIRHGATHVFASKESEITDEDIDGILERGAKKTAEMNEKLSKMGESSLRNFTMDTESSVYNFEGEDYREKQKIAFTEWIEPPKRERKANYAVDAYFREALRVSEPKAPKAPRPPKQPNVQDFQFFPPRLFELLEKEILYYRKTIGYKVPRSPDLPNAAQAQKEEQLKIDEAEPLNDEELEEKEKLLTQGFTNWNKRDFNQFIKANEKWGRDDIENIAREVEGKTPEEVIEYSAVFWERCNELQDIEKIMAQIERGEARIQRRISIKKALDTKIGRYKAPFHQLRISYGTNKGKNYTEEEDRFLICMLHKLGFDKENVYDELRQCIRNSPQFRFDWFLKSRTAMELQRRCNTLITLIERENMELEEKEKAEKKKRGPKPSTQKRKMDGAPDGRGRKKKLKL

Results are given in words; binding and its absence hold for the method and conditions named. In cells and extracts the contact can be indirect. Some entries that bind do so weakly or less than the wild type.

With “glycogen synthase kinase (GSK) 3β, endogenous, human (from UniProt P49841 1-420) (enzyme)”, in the assay with V5-tagged wild-type NM1, the binding result was “binds”.
As to “SNF2h, endogenous, mouse (from UniProt Q91ZW3 1-1051)”, the binding result in assay [1] is on record as “no binding”.
Regarding “nuclear myosin 1c (NM1), endogenous, mouse (from UniProt Q9WTI7-3 1-1044)”, the binding entry in assay [1] is “binds”.

B1: WSTF, endogenous, mouse (protein, UniProt Q9Z277 1-1479)
chain: MAPLLGRKPFPLVKPLPGEEPLFTIPHTQEAFRTREEYEARLERYSERIWTCKSTGSSQLTHKEAWEEEQEVAELLKEEFPNWYEKLVLEMVHHNTASLEKLVDSAWLEIMTKYAVGEECDFEVGKEKMLKVKIVKIHPLEKVDEEAVEKKSDGACDSPSSDKENSSQMAQDLQKKETVVKEDEGRRESINDRARRSPRKLPTSLKKGERKWAPPKFLPHKYDVKLQNEDKIISNVPADSLIRTERPPNKEILRYFIRHNALRAGTGENAPWVVEDELVKKYSLPSKFSDFLLDPYKYMTLNPSTKRRNTGSPDRKPSKKPKRDSSSLSSPLNPKLWCHVHLEKSLNGPPLKVKNSKNSKSPEEHLEGVMKIMSPNNNKLHSFHIPKKGPAAKKPGKHSDKPLKAKGRGKGILNGQKSTGNSKSPSKCVKTPKTKMKQMTLLDMAKGTQKMTRTPRSSGGVPRSSGKPHKHLPPAALHLIAYYKENKDKEDKKSALSCVISKTARLLSNEDRARLPEELRALVQKRYELLEHKKRWASMSEEQRKEYLKKKRQELKERLREKAKERREREMLERLEKQKRFEDQELGGRNLPAFRLVDTPEGLPNTLFGDVALVVEFLSCYSGLLLPDAQYPITAVSLMEALSADKGGFLYLNRVLVILLQTLLQDEIAEDYGELGMKLSEIPLTLHSVSELVRLCLRRCDVQEDSEGSETDDNKDSTPFEDNEVQDEFLEKLETSEFFELTSEEKLRILTALCHRILMTYSVQDHMETRQQVSAELWKERLAVLKEENDKKRAEKQKRKEMEARNKENGKEENVLGKVDRKKEIVKIEQQVEVEADDMISAVKSRRLLSMQAKRKREIQERETKVRLEREAEEERMRKHKAAAEKAFQEGIAKAKLVLRRTPIGTDRNHNRYWLFSNEVPGLFIEKGWVHNSIDYRFKHHRKDHSNLPDDDYCPRSKKANLGKNASVNAHHGPALEAVETTVPKQGQNLWFLCDSQKELDELLSCLHPQGIRESQLKERLEKRYQEITHSIYLARKPNLGLKSCDGNQELLNFLRSDLIEVATRLQKGGLGYMEGTSEFEARVISLEKLKDFGECVIALQASVIKKFLQGFMAPKQKKRKLQSEDSTKSEEVDEEKKMVEEAKVASALEKWKTAIREAQTFSRMHVLLGMLDACIKWDMSAENARCKVCRKKGEDDKLILCDECNKAFHLFCLRPALYEVPDGEWQCPACQPPTARRNSRGRNYTEESTSEGSEGDESGEEEEEEEEEEEEEEDYEVAGLRLRPRKTIRGKQSVIPAARPGRPPGKKSHPARRSRPKDDPEVDDLVLQTKRISRRQSLELQKCEDILHKLVKYRFSWPFREPVTRDEAEDYYDVIEHPMDFQTIQNKCSCGNYRSVQEFLTDMKQVFANAELYNCRGSHVLSCMEKTEQCLLALLQKHLPGHPYVRRKRRKFPDRLADDEGDSDSESVGQSRGRRQKK
As for B1, the binding result in assay [1] is recorded as “no binding”.
